Data set [1] has as its target T1, Dm-piRMT (ssRNA 2'-O-methyltransferase) (Drosophila melanogaster) (UniProt Q7K175).
T1 sequence (limits assumed): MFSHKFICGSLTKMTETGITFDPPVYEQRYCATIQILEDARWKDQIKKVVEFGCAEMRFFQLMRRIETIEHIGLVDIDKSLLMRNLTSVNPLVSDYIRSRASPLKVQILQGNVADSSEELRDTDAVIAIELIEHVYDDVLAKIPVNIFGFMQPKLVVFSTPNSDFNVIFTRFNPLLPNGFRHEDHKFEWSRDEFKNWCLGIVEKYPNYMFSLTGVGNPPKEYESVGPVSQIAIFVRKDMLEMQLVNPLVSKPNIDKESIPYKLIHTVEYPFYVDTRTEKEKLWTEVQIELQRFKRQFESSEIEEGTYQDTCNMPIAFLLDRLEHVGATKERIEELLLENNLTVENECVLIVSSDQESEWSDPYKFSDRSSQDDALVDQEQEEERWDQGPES
The data set is described as follows: activity assay. As to conditions: purified recombinant protein.

Protein sequences, listed by entry. Tags and fused reporters are not part of them. Lines headed by an entry give the natural chain unless they say otherwise; changes in a name come on top.
UniProt Q5T8I9: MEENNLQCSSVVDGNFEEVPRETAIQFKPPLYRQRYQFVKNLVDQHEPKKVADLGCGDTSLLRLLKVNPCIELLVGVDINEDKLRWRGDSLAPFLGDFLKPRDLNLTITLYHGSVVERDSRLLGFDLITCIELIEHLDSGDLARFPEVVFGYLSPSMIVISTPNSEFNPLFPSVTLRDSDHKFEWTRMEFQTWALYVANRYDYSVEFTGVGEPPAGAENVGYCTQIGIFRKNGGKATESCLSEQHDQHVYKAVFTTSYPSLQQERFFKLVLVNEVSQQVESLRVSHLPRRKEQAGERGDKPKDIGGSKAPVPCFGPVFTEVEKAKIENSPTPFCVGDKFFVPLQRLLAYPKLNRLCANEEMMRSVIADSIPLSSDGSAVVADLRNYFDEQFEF

The target of data set [2] is Hs-piRMT (ssRNA 2'-O-methyltransferase) (Homo sapiens) (UniProt Q5T8I9). The data set is described as follows: activity assay. As to conditions: 3' methylation by NaIO4/beta-elimination and PAGE; 10 mM Co2+ or Co3+ required, AdoMet, pH 7.4, 37 C; also Ado-6-amine and Ado-6-azide; purified recombinant protein; label: 32P.

For part of these data: Tags and fusion partners may be left off the protein sequences shown.

UUCGCUUGCAGAGAGAAAUCAC [miR173.1]: the “activity on this sequence” value in data set [1] (3' methylation by NaIO4/beta-elimination and PAGE, 10 mM Co2+ or Co3+ required, AdoMet, pH 7.4, 37 C, also Ado-6-amine, Ado-6-azide, Ado-biotin, label: 32P) is recorded as “active”; in data set [2] it was “active”.

Take UUAACGCUUGCAGAGAGAAUCAC [siR173.1]: the “activity on this sequence” value in data set [1] (Co2+, 37 C, AdoMet or synthetic cofactors) is “active”.

(Values after patent US11008605.)
